Among the data in the supplement of paper PMC10849652 are log2 fold change values, retold here.

The chains behind the UniProt entries cited, without tags or fusion partners. Where a name states a change or a piece, a line headed by the entry shows the natural chain unless it says otherwise.
UniProt Q6P9F7: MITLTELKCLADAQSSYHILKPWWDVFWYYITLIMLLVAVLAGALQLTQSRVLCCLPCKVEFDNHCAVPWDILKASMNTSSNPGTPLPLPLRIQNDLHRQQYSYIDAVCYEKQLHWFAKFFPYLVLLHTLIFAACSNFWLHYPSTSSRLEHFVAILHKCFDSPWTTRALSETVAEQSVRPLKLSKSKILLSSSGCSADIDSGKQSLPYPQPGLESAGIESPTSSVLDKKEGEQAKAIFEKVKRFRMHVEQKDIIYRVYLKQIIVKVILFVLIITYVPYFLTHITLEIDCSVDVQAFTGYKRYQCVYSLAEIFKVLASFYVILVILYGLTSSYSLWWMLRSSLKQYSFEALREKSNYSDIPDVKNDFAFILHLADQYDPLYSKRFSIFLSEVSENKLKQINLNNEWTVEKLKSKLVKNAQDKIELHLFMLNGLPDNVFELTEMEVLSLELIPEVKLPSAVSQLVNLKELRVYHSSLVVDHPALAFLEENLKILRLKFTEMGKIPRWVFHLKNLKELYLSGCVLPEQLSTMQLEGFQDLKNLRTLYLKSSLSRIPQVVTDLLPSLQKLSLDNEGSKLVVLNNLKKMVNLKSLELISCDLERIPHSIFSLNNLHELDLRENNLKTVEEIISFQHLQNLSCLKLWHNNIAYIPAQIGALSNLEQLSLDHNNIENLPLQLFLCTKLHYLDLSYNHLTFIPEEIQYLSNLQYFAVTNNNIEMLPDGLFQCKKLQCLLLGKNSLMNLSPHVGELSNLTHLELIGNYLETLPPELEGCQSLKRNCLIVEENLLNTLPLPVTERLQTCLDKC
UniProt P27816: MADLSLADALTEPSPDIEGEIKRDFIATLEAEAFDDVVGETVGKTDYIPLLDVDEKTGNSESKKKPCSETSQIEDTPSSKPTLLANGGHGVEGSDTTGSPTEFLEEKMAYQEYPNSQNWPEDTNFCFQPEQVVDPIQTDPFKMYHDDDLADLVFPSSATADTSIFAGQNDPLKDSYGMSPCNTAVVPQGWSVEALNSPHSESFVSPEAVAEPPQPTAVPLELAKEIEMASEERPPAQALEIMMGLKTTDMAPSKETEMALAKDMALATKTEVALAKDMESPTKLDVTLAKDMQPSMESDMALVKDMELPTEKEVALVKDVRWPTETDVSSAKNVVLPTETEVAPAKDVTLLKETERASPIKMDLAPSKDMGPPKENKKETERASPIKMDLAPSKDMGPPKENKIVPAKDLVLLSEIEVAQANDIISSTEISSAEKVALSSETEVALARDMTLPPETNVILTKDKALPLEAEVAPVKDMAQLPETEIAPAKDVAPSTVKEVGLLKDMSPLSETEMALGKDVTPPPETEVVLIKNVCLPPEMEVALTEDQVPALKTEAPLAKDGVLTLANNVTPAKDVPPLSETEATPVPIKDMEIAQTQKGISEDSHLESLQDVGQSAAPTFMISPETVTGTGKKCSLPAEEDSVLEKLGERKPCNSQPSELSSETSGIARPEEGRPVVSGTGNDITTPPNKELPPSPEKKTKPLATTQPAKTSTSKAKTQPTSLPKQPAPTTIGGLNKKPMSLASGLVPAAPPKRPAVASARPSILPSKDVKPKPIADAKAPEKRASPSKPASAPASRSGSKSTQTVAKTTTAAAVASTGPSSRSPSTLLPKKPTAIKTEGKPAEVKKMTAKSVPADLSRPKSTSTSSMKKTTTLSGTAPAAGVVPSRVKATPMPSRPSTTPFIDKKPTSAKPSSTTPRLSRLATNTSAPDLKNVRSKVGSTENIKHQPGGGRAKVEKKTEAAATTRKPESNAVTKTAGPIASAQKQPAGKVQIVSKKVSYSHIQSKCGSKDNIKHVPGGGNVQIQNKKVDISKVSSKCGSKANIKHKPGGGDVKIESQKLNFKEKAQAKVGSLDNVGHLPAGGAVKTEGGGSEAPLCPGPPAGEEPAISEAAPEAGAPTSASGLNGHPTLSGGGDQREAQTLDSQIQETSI
UniProt P07948: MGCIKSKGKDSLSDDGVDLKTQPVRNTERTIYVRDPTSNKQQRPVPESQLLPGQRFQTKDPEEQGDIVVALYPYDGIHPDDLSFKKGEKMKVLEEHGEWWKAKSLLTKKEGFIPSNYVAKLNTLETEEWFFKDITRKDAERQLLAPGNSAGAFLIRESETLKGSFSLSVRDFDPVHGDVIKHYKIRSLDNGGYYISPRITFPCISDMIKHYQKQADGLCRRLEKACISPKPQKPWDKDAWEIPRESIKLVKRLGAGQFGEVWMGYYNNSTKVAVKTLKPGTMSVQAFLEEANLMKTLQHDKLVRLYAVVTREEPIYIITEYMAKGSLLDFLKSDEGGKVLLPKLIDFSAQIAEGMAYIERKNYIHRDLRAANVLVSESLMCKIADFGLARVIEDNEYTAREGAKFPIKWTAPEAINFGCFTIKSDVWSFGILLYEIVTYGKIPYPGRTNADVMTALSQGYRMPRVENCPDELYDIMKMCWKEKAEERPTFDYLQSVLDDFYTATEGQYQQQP
UniProt Q8N2S1: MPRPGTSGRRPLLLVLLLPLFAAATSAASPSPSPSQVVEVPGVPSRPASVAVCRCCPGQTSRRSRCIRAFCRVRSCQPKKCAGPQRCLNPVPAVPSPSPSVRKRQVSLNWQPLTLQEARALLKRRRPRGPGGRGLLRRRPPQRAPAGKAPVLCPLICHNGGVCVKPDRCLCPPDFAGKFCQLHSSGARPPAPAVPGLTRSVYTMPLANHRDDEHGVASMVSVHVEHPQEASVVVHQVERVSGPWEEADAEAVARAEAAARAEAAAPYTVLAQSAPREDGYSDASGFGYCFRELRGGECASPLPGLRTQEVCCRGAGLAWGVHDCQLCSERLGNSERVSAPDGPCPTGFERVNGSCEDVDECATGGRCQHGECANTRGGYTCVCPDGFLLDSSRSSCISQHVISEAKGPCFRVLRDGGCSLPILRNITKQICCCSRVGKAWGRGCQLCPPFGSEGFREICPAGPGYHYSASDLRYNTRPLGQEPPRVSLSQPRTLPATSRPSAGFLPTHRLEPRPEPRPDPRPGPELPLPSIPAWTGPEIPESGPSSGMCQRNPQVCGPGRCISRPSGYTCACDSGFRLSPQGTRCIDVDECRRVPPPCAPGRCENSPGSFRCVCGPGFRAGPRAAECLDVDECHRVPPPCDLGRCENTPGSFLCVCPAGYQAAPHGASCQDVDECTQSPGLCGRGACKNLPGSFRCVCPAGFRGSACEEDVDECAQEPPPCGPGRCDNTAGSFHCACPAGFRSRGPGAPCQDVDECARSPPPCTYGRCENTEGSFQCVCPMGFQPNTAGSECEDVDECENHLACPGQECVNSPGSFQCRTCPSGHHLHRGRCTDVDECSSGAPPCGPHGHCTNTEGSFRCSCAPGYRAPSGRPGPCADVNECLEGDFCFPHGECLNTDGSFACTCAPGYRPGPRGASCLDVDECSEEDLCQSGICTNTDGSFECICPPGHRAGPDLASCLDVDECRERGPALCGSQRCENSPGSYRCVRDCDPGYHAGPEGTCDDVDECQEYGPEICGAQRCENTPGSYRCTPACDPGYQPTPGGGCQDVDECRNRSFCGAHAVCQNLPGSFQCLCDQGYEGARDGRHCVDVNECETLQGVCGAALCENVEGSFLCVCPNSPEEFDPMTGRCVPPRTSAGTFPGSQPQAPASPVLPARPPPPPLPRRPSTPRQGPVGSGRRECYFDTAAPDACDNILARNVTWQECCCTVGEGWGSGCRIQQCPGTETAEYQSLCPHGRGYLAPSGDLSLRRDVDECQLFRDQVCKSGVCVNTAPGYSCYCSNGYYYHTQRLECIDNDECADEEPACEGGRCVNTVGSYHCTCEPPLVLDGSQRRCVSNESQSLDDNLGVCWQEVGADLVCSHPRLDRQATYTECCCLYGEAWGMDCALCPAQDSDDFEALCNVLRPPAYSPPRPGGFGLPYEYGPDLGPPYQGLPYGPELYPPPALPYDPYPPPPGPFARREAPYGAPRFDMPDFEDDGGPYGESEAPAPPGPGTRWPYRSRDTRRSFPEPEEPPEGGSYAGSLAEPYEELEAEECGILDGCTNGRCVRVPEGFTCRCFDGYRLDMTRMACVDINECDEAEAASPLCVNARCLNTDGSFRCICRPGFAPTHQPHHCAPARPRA
UniProt P10636, whole entry, looked up: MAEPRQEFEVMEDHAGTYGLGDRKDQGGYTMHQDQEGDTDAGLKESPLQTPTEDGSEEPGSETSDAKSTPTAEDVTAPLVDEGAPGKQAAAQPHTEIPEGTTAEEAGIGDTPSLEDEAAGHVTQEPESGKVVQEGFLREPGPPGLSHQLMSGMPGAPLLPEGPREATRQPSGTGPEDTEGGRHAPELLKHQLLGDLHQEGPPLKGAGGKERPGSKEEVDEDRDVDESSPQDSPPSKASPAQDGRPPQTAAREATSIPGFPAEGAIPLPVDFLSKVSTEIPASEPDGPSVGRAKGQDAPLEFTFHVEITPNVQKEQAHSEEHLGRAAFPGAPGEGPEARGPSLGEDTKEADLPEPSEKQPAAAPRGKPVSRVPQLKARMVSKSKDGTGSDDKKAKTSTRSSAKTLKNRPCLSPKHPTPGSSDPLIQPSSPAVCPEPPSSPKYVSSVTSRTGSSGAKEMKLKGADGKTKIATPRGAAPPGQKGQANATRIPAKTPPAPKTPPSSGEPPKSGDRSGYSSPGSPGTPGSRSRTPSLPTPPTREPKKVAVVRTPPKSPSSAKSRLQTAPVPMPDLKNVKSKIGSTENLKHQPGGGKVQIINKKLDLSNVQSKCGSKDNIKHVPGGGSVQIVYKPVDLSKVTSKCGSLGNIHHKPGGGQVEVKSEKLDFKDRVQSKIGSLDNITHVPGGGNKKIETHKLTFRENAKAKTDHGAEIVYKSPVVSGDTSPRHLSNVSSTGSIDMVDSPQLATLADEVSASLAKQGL
UniProt Q15759, whole entry, looked up: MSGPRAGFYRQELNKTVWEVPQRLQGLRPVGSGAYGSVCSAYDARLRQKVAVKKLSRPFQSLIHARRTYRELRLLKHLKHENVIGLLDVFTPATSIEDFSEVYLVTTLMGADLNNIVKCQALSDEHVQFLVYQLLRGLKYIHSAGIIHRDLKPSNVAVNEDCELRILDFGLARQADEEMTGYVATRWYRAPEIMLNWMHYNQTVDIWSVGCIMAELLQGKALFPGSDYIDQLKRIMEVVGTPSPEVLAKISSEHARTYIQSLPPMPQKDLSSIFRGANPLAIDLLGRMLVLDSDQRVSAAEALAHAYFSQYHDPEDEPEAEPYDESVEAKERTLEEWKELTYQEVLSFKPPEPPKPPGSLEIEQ
UniProt Q8IZL2, whole entry, looked up: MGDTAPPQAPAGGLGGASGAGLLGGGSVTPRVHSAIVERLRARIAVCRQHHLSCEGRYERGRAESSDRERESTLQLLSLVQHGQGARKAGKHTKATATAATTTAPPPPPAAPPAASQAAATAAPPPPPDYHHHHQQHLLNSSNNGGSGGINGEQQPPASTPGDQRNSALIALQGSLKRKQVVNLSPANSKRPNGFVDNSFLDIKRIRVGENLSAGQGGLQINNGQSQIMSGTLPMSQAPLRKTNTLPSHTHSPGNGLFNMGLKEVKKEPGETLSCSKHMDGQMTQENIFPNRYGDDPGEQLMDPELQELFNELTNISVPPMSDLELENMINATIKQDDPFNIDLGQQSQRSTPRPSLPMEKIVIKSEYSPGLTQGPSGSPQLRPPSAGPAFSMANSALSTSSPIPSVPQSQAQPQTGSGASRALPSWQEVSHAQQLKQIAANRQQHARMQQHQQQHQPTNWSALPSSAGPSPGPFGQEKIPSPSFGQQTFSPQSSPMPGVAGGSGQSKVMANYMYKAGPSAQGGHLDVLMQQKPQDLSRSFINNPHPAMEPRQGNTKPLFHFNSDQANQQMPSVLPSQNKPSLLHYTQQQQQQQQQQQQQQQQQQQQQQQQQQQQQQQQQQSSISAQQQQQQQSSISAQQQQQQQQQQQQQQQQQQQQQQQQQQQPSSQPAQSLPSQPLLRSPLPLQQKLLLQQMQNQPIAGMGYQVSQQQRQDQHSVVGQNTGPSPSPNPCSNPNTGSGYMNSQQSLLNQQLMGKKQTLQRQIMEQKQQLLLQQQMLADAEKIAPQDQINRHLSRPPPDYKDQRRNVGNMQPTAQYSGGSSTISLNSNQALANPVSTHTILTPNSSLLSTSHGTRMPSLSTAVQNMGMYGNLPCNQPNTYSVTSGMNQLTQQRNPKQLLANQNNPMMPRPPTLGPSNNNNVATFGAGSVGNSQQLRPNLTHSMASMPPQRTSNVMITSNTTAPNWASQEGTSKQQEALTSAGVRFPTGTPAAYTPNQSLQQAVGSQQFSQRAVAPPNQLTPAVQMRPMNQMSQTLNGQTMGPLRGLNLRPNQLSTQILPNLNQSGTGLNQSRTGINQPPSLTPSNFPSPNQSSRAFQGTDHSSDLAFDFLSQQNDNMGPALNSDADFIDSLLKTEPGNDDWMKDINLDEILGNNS
UniProt Q9UI95, whole entry, looked up: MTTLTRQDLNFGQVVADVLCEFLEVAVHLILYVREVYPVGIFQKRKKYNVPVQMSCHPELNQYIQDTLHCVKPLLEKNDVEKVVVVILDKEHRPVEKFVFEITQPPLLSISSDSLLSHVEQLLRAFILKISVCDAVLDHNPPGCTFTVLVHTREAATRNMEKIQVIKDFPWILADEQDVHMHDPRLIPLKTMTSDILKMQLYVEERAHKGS

This is one part of the list.

Compound in the first test: CCCS(=O)(=O)Nc1ccc(F)c(C(=O)c2c[nH]c3ncc(Cl)cc23)c1F
In words: log2 fold change, soluble protein after heating vs DMSO (PISA); higher = thermal stabilisation; K562 cells, 10 uM, 30 min; active = over 0.2 and 3.5 SD of the protein, either way, in both replicates (recomputed). In outline:
(§1)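 K562 cells at 2×10^6 cells/mL were treated for 30 min with 10 μM compound, and aliquots were heated for 3 min over 48°C-58°C before pooling. Extraction used PBS with 0.5% NP-40 at 4°C, and soluble protein was the supernatant after 21,000xg for 90 min, measured by TMTpro 16plex LC-MS/MS with channel sums equalised. Thermal stability values, relative to control samples and from duplicates, are log2 fold changes.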
On to MAP3K20 isoform 2 (UniProt Q9NYL2), for which the log2 fold change was inactive: 0.044.

As for LRRC8B (UniProt Q6P9F7), the log2 fold change was inactive: 0.001. MAP4 isoform 5 (UniProt P27816): the log2 fold change is inactive: -0.01. Still for that read-out and setting: as for MARCHF3 (UniProt Q86UD3), the figure is inactive: -0.01; as for LSR isoform 3 (UniProt Q86X29), inactive: 0.158; as for MAGED1 isoform 2 (UniProt Q9Y5V3), inactive: 0.198.

LTBP1 isoform 4 (UniProt Q14766): the log2 fold change is inactive: 0.012.

For MAPRE3 isoform 2 (UniProt Q9UPY8), the log2 fold change is inactive: 0.029. The same measure, in the same setting: in the case of MAN2B1 (UniProt M0QYZ1) it was inactive: -0.153.

Regarding MAP3K10 (UniProt Q02779), the log2 fold change was inactive: -0.305. As for LYN isoform 2 (UniProt P07948), the log2 fold change was inactive: -0.296.

For LTBP4 (UniProt Q8N2S1), the log2 fold change is inactive: -0.012. With MAPT isoform 9 (UniProt P10636), the log2 fold change was inactive: -0.005.

Compound in the next test: CCCc1cc(C)[nH]c(=O)c1CNC(=O)c1cc(-c2ccnc(N3CCN(C)CC3)c2)cc2c1cnn2C(C)C
Described as above. In outline:
as §1
Turning to MAP3K20 isoform 2 (UniProt Q9NYL2), the log2 fold change is inactive: -0.017. For the target LRRC8B (UniProt Q6P9F7), the log2 fold change was inactive: 0.142. With MAP4 isoform 5 (UniProt P27816), the log2 fold change is inactive: -0.161. Turning to LSM14A, A0A140TA76, the log2 fold change is inactive: 0.133.

In the case of LSR isoform 3 (UniProt Q86X29), the log2 fold change was inactive: -0.081. With LYPLA1, A0A087X1K9, the log2 fold change was inactive: -0.184.

On to MAP3K3 isoform 2 (UniProt Q99759), for which the log2 fold change is inactive: 0.058. Same read-out and setting: as for LTBP4 (UniProt Q8N2S1), the figure is inactive: -0.059. On the same count and under the same terms, in the case of MAP4K4 isoform 6 (UniProt O95819) it was inactive: 0.393; in that of LYST (UniProt Q99698), inactive: 0.056.

Compound in another test: CCN(CC)Cc1ccc2cc(COC(=O)Nc3ccc(C(=O)NO)cc3)ccc2c1 [givinostat]
The test is described as above. The method, boiled down: as §1
Regarding MAP3K20 isoform 2 (UniProt Q9NYL2), the log2 fold change is inactive: 0.003. Same read-out and setting: in the case of LRRC8B (UniProt Q6P9F7) it was inactive: 0.027; in that of MAML1 (UniProt Q92585), inactive: 0.299; in that of MAP4 isoform 5 (UniProt P27816), inactive: -0.028. Take MAPK11 (UniProt Q15759): the log2 fold change was inactive: 0.131. On to MAGED1 isoform 2 (UniProt Q9Y5V3), for which the log2 fold change is inactive: 0.006. Same read-out and setting: as for LTBP1 isoform 4 (UniProt Q14766), the figure is inactive: 0.036; as for LRRFIP1 isoform 4 (UniProt Q32MZ4), inactive: 0.011. For MAP7D3 (UniProt Q8IWC1), the log2 fold change is inactive: -0.009. On the same count and under the same terms, as for MAML2 (UniProt Q8IZL2), the figure is inactive: 0.227; as for MAP3K3 isoform 2 (UniProt Q99759), inactive: -0.085. With LYN isoform 2 (UniProt P07948), the log2 fold change is inactive: -0.168. Still for that read-out and setting: in the case of LTBP4 (UniProt Q8N2S1) it was inactive: 0.132; in that of MAD2L2 (UniProt Q9UI95), inactive: -0.029; in that of MAPT isoform 9 (UniProt P10636), inactive: -0.128.
